Consider 114 substances from the supplement of paper PMC5949888.

Most values lie at the floor of the assay. Slopes are relative: functional sequences can read slightly below zero. A value given as a limit tells only on which side of the number the result lay.

The subject of the data set is Saccharomyces cerevisiae PS128 hsf1 delta, HSF1(1-493) fusion. The experiment in a line: growth estimate (transactivation domain function in HSF1 fusion, heat-shock survival) (a.u. (slope of normalised read count over time)); higher = stronger growth at 37°C, i.e. more transactivation activity. The settings on record: library: random library.
In the case of RGWGIIRFNGKYFAHGMFIP, the growth estimate is under -0.25.
For the substance DRCWRFS, the growth estimate is under -0.25.
Next, GNHTVSCRAASGC: under -0.25; GGAVGLLRWQSSYKFLLLTQ: under -0.25.
For the substance LLIFLSGLHSNSA, the growth estimate is under -0.25.
Next, SLVGRGVD: under -0.25; ALCVPKINDMRKGCPGSASD: under -0.25.
In the case of WNMSR, the growth estimate was under -0.25.
With GMVGDSPWAGFP, the growth estimate is under -0.25.
In the case of CFYARQNSAQGTIRHIWLQA, the growth estimate is under -0.25.
For TRPQVKSTG, the growth estimate is under -0.25.
Turning to KSTCIGPLPTRGRSCMISCG, the growth estimate is under -0.25.
As to RMIVQRRRTQVGVLLSCVAR, the growth estimate is under -0.25.
Regarding SQLGR, the growth estimate is under -0.25.
As for NAHGHKRQEGTSGLASNSTK, the growth estimate was under -0.25.
Next, TRV: under -0.25; RGCLARHVSLCGSSDGAGLL: under -0.25.
Next, IPGIKLCCAEQLM: under -0.25; DLRLVSEEAQRQVSLSGKRS: under -0.25; RVVRLVGAASPFCNEISGVA: under -0.25.
Turning to RSVICAVILRVHRRRPRMSK, the growth estimate is under -0.25.
TLCPPYICGAAYLTVTWCRE: the growth estimate was under -0.25.
For the substance RGFWDPRTRS, the growth estimate is under -0.25.
For VPIRLAMSSMIAKSAGHGNT, the growth estimate was under -0.25.
STVIMKGRRKDIAGPMIVNT: the growth estimate is under -0.25.
For the substance KEVDSAIGV, the growth estimate was under -0.25.
KASAVGGF: the growth estimate was under -0.25.
On to YPSGRYGSS, for which the growth estimate was under -0.25.
Next, RDDSTRLSFSLSASEHEYLG: under -0.25.
With GCNNPLSPTCSPSLGRLDPP, the growth estimate was under -0.25.
As for RFGGTAARSLYRDTLFGNSR, the growth estimate was under -0.25.
As to ARPALLLRAPLSAGSLQN, the growth estimate is under -0.25.
In the case of LILHALVDAPRQFEKSE, the growth estimate was under -0.25.
Consider WDP, for which the growth estimate is under -0.25.
With KVVELEDEWPRVKPG, the growth estimate is under -0.25.
Turning to HARAP, the growth estimate is under -0.25.
Consider RRVCSHHSVIDEAILRDIRG, for which the growth estimate is under -0.25.
Take GEA: the growth estimate was under -0.25.
As for AISLNVVRHYVTSRAG, the growth estimate is under -0.25.
Regarding RSVTTPVRQRCAKGIRRRAL, the growth estimate was under -0.25.
Turning to RDVLPGRYDALPSRSG, the growth estimate is under -0.25.
Consider RALIGYGRSHHQYVLQYSCP, for which the growth estimate was under -0.25.
In the case of QSLPLAVRRRAYQTGPRFR, the growth estimate was -0.219.
For LRLAE, the growth estimate was under -0.25.
As for IGSPGAEDDRPEV, the growth estimate is under -0.25.
On to QQDN, for which the growth estimate was under -0.25.
Take LSLGIMTEVDFVTGVAALRV: the growth estimate was under -0.25.
With LHWDPALAITRYG, the growth estimate was under -0.25.
Take LLERQLREWLEVKVRRTNWV: the growth estimate was under -0.25.
In the case of MRSASIALCDPSSVFLAQAS, the growth estimate was under -0.25.
Consider ALFGRNGKGLH, for which the growth estimate is under -0.25.
Turning to MTMRQLGIFRYA, the growth estimate was under -0.25.
EGYCVKSSVGSKIIIDPSGT: the growth estimate was under -0.25.
As for STGYTIHIPGEPRTHLKCIG, the growth estimate was under -0.25.
For NTGILSPGYDQAPSTF, the growth estimate was under -0.25.
Next, NPTQTIYVLDWRMQQTLDAT: -0.228; IGTMLSSSLQNTS: under -0.25; EPQTLWVTNGFV: under -0.25.
With IAGHSRRIDYSHIRIRWTVP, the growth estimate was under -0.25.
Consider THMLGMRIWIHKSGIKPGRV, for which the growth estimate is under -0.25.
Consider QSGPPS, for which the growth estimate was under -0.25.
Turning to FDLNQRLSKFCQNEAR, the growth estimate is under -0.25.
Regarding RPGHEISKVKRSLLLP, the growth estimate was under -0.25.
As to GVEKRLGVPARFYSRVLATG, the growth estimate was under -0.25.
With YSSDKATSGMSRLDYRARQQ, the growth estimate was under -0.25.
For YSFTLPYAL, the growth estimate is 5.9.
GFHRGGAVEVRGNCNLALQG: the growth estimate is under -0.25.
On to GWGRYGFCFIYMNSSGAHSC, for which the growth estimate is under -0.25.
Turning to PLPQHVG, the growth estimate was under -0.25.
Consider MFGWVKVLPLHMRCT, for which the growth estimate is under -0.25.
In the case of SYLFRFTLPCKKYQYQLEQV, the growth estimate was under -0.25.
On to VVKLECPDLTGVTPNQSLQE, for which the growth estimate was -0.246.
Consider SGENRIGPRDNGVLVRYRAR, for which the growth estimate is under -0.25.
Regarding CTASLALKKSRDTLEGLSLV, the growth estimate was under -0.25.
Regarding VYHAGGRKGSTGVLRTCASI, the growth estimate is under -0.25.
In the case of VSD, the growth estimate is under -0.25.
As to IMPYTVVGRSYSSVGTGPPY, the growth estimate was under -0.25.
For WVTPTCSCVGEGQRLHIGLG, the growth estimate is under -0.25.
Take PGRYAGGLSAVGL: the growth estimate is under -0.25.
PIDNPAEARERRSRARAARS: the growth estimate was under -0.25.
Next, FTTAFCA: under -0.25; AELNIVAFVKPITYAPTRGL: under -0.25.
In the case of WQFMKQ, the growth estimate is under -0.25.
Take WCKCRAANPTAGMSRI: the growth estimate is under -0.25.
For DSQWGDSDSIPLPSRCTETI, the growth estimate is under -0.25.
Regarding HIKV, the growth estimate was -0.246.
Consider PLSEPPRPLS, for which the growth estimate was under -0.25.
With APKLLSRYVLSMSYSRRWPR, the growth estimate was under -0.25.
LLRKRGMGGS: the growth estimate is under -0.25.
Next, LYHP: under -0.25; GSF: under -0.25; SGPGWSARGTCLSSSYIVQC: under -0.25.
With QLGGLS, the growth estimate was under -0.25.
As for FTTAVERRVSLSNP, the growth estimate is under -0.25.
Take NTLPRIDA: the growth estimate is under -0.25.
As to ASKNRQSD, the growth estimate was under -0.25.
Next, NGVADNEILKYCDWDLRRSR: under -0.25; PRGFDGKIR: under -0.25.
Next, LTFTRLMGCADNCKESCVPP: under -0.25; TVSSAVAPLTLILPTVGQAQ: under -0.25; DISKSVGETEQEF: under -0.25.
For PIDNACLFSSLCMTMKSLAA, the growth estimate is -0.181.
With AVLE, the growth estimate is under -0.25.
Regarding GPTESAVVLGLKVFGLCQNH, the growth estimate is under -0.25.
In the case of LSAVILLD, the growth estimate was under -0.25.
Next, DGSTLEAKTCVAVRLAFVAS: under -0.25; VLITSGSLVQGFVRTAGGFC: under -0.25; FLVFKVTLECIYHYSVFHLE: under -0.25.
With AIDEVLRMTRCSPSP, the growth estimate is under -0.25.
Next, SKLTACGHGV: -0.168; LVWEDFAYQRLLSSGRFN: under -0.25; HAVSDMKYSHVPPRVPGTAR: under -0.25.
For the substance VGEKLEGHGRDLWGSGVGFV, the growth estimate is under -0.25.
With IEELLIPAGRITLERSSDKR, the growth estimate was under -0.25.
